# Measurements reported in PubChem BioAssay AID1347426 (Functional Genomics Laboratory (NCATS/FGL), 2020).
# About 1,400 (4.5%) of roughly 31,000 sequences were called active.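 How the source made its calls: active means median seed-adjusted z-score above 1 or below -1; inactive means the rest.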 This is one part of the list.
# Experiment: Novel Modifiers of Survival Motor Neuron (SMN) Protein: Gene Identification via Genome-wide siRNA Screen;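 further: luminescence tracks full-length SMN protein made from the SMN2 reporter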
# Conditions: HEK293T SMN2-luciferase reporter, siRNA knockdown, 72 h; actives lie on both sides
# How it was run: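 Genome-wide siRNA screen (10418 genes, 3 siRNAs each, 1 pmol per well) by reverse transfection in HEK293T cells stably carrying an SMN2-luciferase reporter; luminescence after 72 hours, normalized to negative-control siRNA, log10-transformed, MAD-scored.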
row,Sequence,median seed-adjusted z-score
1,GCAAGAUGAUUUUAUCUCUTT against CDA,inactive: 0.471
2,GUCUGUCACCGUAUCGUCATT against FGD6,inactive: 0.536
3,CAGUUAAGACUGUAGAGAATT against SQRDL,inactive: 0.455
4,CAUAGAAACUGAUGCAGAATT against ENOSF1,inactive: 0.496
5,CUAUGGAAGAUACUAUAUUTT against GGH,inactive: -0.105
6,GGGACUCAAUUGACGAAAATT against DNAJC16,inactive: 0
7,GCAUCAUCUAGAGCGGAUATT against LRRC4C,inactive: -0.122
8,CCACAGGAGAAGAUUGUCATT against CYP1A2,inactive: 0
9,GGCAUUAUCUGGAUCACUUTT against PATE1,active: 1.21
10,GCAACGCAGUGAGGAGUAUTT against NIN,inactive: 0.646
11,CAUCCAUCAAGAGACCAAATT against HTR3D,inactive: 0.776
12,CGAUGAGCCUGCUAUACAATT against ID2,inactive: 0.783
13,GCAGCAAGCCGACAUCAUATT against RTEL1,inactive: 0.458
14,GAAGGAAGAUGGUAAGGGATT against IL6ST,inactive: -0.518
15,CAAGAACGUGCACAUUUUUTT against SLC25A4,inactive: -0.379
16,GCUUCUACCUUUACACGGATT against PDE1A,inactive: 0
17,GCAAGGCGGCUCUAGCUAATT against PDLIM1,inactive: -0.189
18,GUGGAUCUGUGGAACAUGATT against RCL1,inactive: 0.0807
19,GGCAUGUCCUCACCCAAUATT against ESPN,inactive: 0
20,CUUCUUCAUCGUUAACAUUTT against ADRB2,inactive: 0.0987
21,CAGCAAAUUCCAUCGUGUATT against PPIB,inactive: 0.038
22,GAUUAUUCCGAGUACUUGATT against YY2,inactive: 0.363

row,Sequence,median seed-adjusted z-score
1,CCCUGGUGUUUAUCAAGUATT against PSEN1,inactive: -0.679
2,GCUAUAGACUUGCAAGAUATT against KCNT2,inactive: 0.449
3,AUCCUUCCCUGAAUCAUCATT against KLRC2,inactive: -0.472
4,CCAACUCCUUGAUUAAAGATT against PARK2,inactive: 0.146
5,CCAACACCUGUACCCAAUATT against SMARCC1,inactive: -0.0304
6,CAAUUGACCUUACGCAGAATT against TLL1,inactive: 0.396
7,GGUGGUAUCUGUUUCCGUATT against PCAF,inactive: -0.00665
8,GCCUGUUGCCUGAGAGACATT against PROP1,inactive: 0.303
9,CACAAGUUAUUGUUCCAGATT against GTF2A1,inactive: -0.0209
10,CCAUAUAAGGGAGAAGAUATT against ZNF200,inactive: 0.498
11,CGCAGACACUGUCAAAGAATT against HS3ST4,inactive: 0.284
12,GAUUCUCAUUCGUUGACCATT against FGA,inactive: 0.267
13,GAUUCGCAUCUUCAAAAUATT against RAB33A,inactive: 0.307
14,CAAUCAAAGGGAAACUUGATT against TPT1,inactive: 0.236
15,CGGAGUUUGUUGAUAUCGATT against LGI2,inactive: 0
16,CGAAAAUCUCUCUACCGAUTT against NUP153,inactive: -0.847
17,GUAUAUCAGUUCCAGUUUATT against RANBP3,inactive: -0.211
18,CUGCGGAUGUUUAACAGGATT against ENTPD6,inactive: 0.438
19,GCACUAUCCUGACCUUCCUTT against KCNG1,inactive: -0.00995
20,CGGUGUACCUUCUCACUUUTT against GPR42,inactive: -0.0972
21,CAAGAUUUCUUAGGGCGAATT against STYK1,inactive: 0.106
22,GAGUACCUCUGGGACGACATT against GBGT1,inactive: 0.48

row,Sequence,median seed-adjusted z-score
1,GGAAACUCUGUUUACGUUATT against BTAF1,active: -1.19
2,GGAGGGAUAUGUUCCACGUTT against TP53BP2,inactive: 0.157
3,GAGCUUCGAUGUAAAGGGATT against PDGFRL,inactive: 0.0203
4,GGGACGACUGCAUCAAGUATT against SLC27A1,inactive: 0.253
5,CACUGGUAUUUAUAUUUCATT against SNAI1,inactive: 0.0196
6,GGCUCAAUGUAUAGGAUCATT against PHF16,inactive: 0
7,CGGGACAGAUUUACACGUATT against DPF1,inactive: 0.144
8,CGAUUUAUCCGAUGCCCUUTT against CD99,inactive: 0
9,GCAUAGCUGGUAUAGACCATT against XPC,inactive: -0.564
10,GAGCGAGAGUUUUUCUUCATT against HOXC11,inactive: -0.188
11,UGACAAGGAUUAUUUCCUATT against HSPE1,inactive: 0.0101
12,GGAACUGUAUAGGUCAAAATT against CYP4V2,inactive: 0
13,CAGGAGAAGUUAAUCCAGUTT against AKR1B1,inactive: 0.0107
14,ACAUAGGACAGGAUAUUUATT against ZNF697,inactive: 0.0503
15,GCAGAUUUCAGAAUCUAUATT against IL4R,inactive: 0
16,GGUGCAAUCAGAUAACAUATT against PPAPDC1A,inactive: 0.634
17,CAUCGGCUAUGACAACAUUTT against PSTPIP2,inactive: 0.0136
18,CCUCAGAAGCUAUCCCUAATT against ITGA2B,inactive: 0.172
19,GCAGCUCAACGGCAAAGAATT against RBM14,inactive: -0.0317
20,CCGUGUCCAGGAACCUAUATT against LPHN3,inactive: -0.0576
21,CCCUAGUGGUGACCGUUAATT against PCDHA3,inactive: 0.311
22,CUAGUAACAUAUGAUCUAATT against UCP1,inactive: -0.0744

row,Sequence,median seed-adjusted z-score
1,CUCUUGAUAGUUACCGGAATT against TTK,inactive: -0.658
2,GCAGCAGAAUAGUGUGGUATT against TRIM56,inactive: -0.452
3,CAGGCAUCAUAUUUUGAAATT against NUDT3,inactive: 0.674
4,CAGUUGACCUGGGACCUUATT against IL3RA,inactive: -0.951
5,CUCAUACUCUGAAUCUUGATT against ADH6,inactive: -0.132
6,GCUCCGAAGUUCAACCAUUTT against HTR2B,inactive: -0.325
7,AGGAGACUCUUUGCUACAATT against MRGPRX1,inactive: -0.188
8,GAACUGUCGGCGGAACAUUTT against MFAP3L,active: 1.03
9,CGUAUAUAGAGUUCUCAGATT against PABPN1,inactive: -0.757
10,CAAUCCAUGUCAUAGGGAATT against ZNF702,inactive: 0.204
11,GAACAAAGGCUACCUGGUATT against GPR137,inactive: 0.564
12,CUAUCAAGGUUUUGGUACATT against SCN7A,inactive: 0
13,GAGGAAAGCCUAUAUUAUUTT against TPTE2,inactive: -0.0675
14,GCGAUAUUGUCAUUAUUGATT against MTAP,inactive: -0.0621
15,GCUGUCAUUUUGACUAAUATT against CDH19,inactive: -0.409
16,GCACUGAAGCCCAAGCUUUTT against IKZF4,inactive: -0.426
17,AGAUGAAUGUGUGCGACAATT against U2AF1L4,inactive: 0
18,UGUUGGUUUUGUGAUCUUUTT against RBPMS2,inactive: -0.485
19,CCAAUGAGAUGGUCAAGAATT against CDO1,inactive: 0.336
20,GCAUAUAGGCGGGAGCAGATT against POLE3,inactive: -0.0612
21,ACACUUUUGUUAUAAGCUATT against SKI,inactive: -0.139
22,GCAUCAUGUUCUCAGCUGUTT against SLC2A6,inactive: 0.616

# Seven consecutive entries out of the list so far, for reference:
row,Sequence,median seed-adjusted z-score
9,CGUAUAUAGAGUUCUCAGATT against PABPN1,inactive: -0.757
10,CAAUCCAUGUCAUAGGGAATT against ZNF702,inactive: 0.204
11,GAACAAAGGCUACCUGGUATT against GPR137,inactive: 0.564
12,CUAUCAAGGUUUUGGUACATT against SCN7A,inactive: 0
13,GAGGAAAGCCUAUAUUAUUTT against TPTE2,inactive: -0.0675
14,GCGAUAUUGUCAUUAUUGATT against MTAP,inactive: -0.0621
15,GCUGUCAUUUUGACUAAUATT against CDH19,inactive: -0.409

# Exported as tab-separated lines: entries from further up
row	Sequence	median seed-adjusted z-score
2	GCAGCAGAAUAGUGUGGUATT against TRIM56	inactive: -0.452
3	CAGGCAUCAUAUUUUGAAATT against NUDT3	inactive: 0.674

# (list continues)

row,Sequence,median seed-adjusted z-score
1,GAAGAGUACUGAACCUGGATT against GTF2H4,inactive: -0.261
2,GACUCAAUGGUUUGCAUUATT against CTDP1,active: -2.29
3,CAAUAGUUGACUACAUAGATT against 10-Sep,inactive: 0.571
4,GAGAGACGGUGAAUAAAAATT against METTL6,inactive: -0.415
5,CAGUGAGACAUCUAAGAGATT against ACSM2A,inactive: -0.178
6,AGGCUGAACGUCUCACUGATT against SPRR1A,inactive: -0.0536
7,CAGUAGUUCUUCUAAUCCATT against WWP1,inactive: -0.442
8,CAACUAUGUGCAUUAAGGATT against CYP4F22,inactive: 0.383
9,GAAUUGAAACGAGCUAGAATT against TAF13,inactive: -0.919
10,CAACGAGAGCGGUGAAGAATT against CCR2,inactive: -0.00107
11,CAACGGACGUGGAAAUACUTT against UPF1,inactive: 0.253
12,GGAGAAGAUACAAAGCGCATT against MED21,active: -1.3
13,GCAGUAUAGAGGUAUCUGUTT against FUBP3,inactive: 0.108
14,AGCAGAUGCUCUACACCAATT against ARHGAP27,inactive: -0.777
15,GGACUGAGCUUCUCAAUGUTT against FOLR1,active: -1.31
16,GAUUGUAGUGUAUCAAGAATT against KIAA1804,inactive: -0.211
17,GAACAAAAAUUGAACACUUTT against SCP2,inactive: 0.413
18,GACUGAGAGUUCUUGAGGATT against GJA9,inactive: -0.00119
19,CCACCAACCUAGGAGUUGUTT against GRM5,inactive: -0.227
20,GGAUGAGUAUGGACAGUUUTT against PGC,inactive: 0.884
